PubChem BioAssay AID1224826, NIAID | 2016
Screen: 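Regulators of Tlr4 signalling leading to Tnf-alpha expression in macrophages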 (primary screen). System: RAW264.7 G9 macrophages from mouse bearing reporters for p65 (GFP) and the Tnf promoter (mCherry). Knock-down reagent: siRNA pool against mouse genes, 100 nM. Time to read-out: 16 h of LPS stimulation, after 2 days of siRNA transfection. Treatment: bacterial lipopolysaccharide (Salmonella minnesota R595), 10 ng/ml. Read-out: 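Nuclear mCherry signal of the Tnf promoter reporter measured by imaging after background removal, scaled to each plate median and turned into robust z-scores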. Reading the numbers: Tnf reporter robust z-score: higher = stronger Tnf promoter reporter signal after LPS. Hit rule: 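Called active when robust z-score is at most -1.3, matching the median of the Tlr4 knock-down control, or over 3; control wells and wells with under 50 cells never active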. Calls: active = Tnf reporter clearly lowered or raised; inactive = no clear change in Tnf reporter.
Here is one part, drawn at random, of about 17,000 reagents tested. About 1,110 of all reagents (6.6%) were called active. 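Active means lowered or raised reporter signal; replicate intensities are raw and not normalised per plate.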 Not all columns of the deposit are shown. No sequences are given here.

Cysltr1 [SID315471921] | Tnf reporter robust z-score: 0.9; fewer than 50 cells in well: enough cells in well; outcome: inactive
4930474N05Rik [SID315478221] | fewer than 50 cells in well: fewer than 50 cells per well; well left out of calls; outcome: inactive
Syt6 [SID315471251] | Tnf reporter robust z-score: 0.15; fewer than 50 cells in well: enough cells in well; outcome: inactive
S100a6 [SID315469082] | Tnf reporter robust z-score: -0.26; fewer than 50 cells in well: enough cells in well; outcome: inactive
Hmgn1 [SID315467221] | Tnf reporter robust z-score: 0.03; fewer than 50 cells in well: enough cells in well; outcome: inactive
Cts3 [SID315477079] | Tnf reporter robust z-score: -0.5; fewer than 50 cells in well: enough cells in well; outcome: inactive
Fbxw9 [SID315473588] | Tnf reporter robust z-score: 0.76; fewer than 50 cells in well: enough cells in well; outcome: inactive
Anxa5 [SID315465423] | Tnf reporter robust z-score: -0.53; fewer than 50 cells in well: enough cells in well; outcome: inactive
Rxfp3 [SID315479433] | Tnf reporter robust z-score: -1.27; fewer than 50 cells in well: enough cells in well; outcome: inactive
Wdr72 [SID315481630] | Tnf reporter robust z-score: 1.18; fewer than 50 cells in well: enough cells in well; outcome: inactive
Slc12a4 [SID315469274] | Tnf reporter robust z-score: -0.06; fewer than 50 cells in well: enough cells in well; outcome: inactive
Hcrtr2 [SID315481849] | Tnf reporter robust z-score: 0.11; fewer than 50 cells in well: enough cells in well; outcome: inactive
Rap2c [SID315474441] | Tnf reporter robust z-score: 1.21; fewer than 50 cells in well: enough cells in well; outcome: inactive
Pecam1 [SID315468461] | Tnf reporter robust z-score: -0.49; fewer than 50 cells in well: enough cells in well; outcome: inactive

Next part; the last 2 above are carried over.
Rap2c [SID315474441] | Tnf reporter robust z-score: 1.21; fewer than 50 cells in well: enough cells in well; outcome: inactive
Pecam1 [SID315468461] | Tnf reporter robust z-score: -0.49; fewer than 50 cells in well: enough cells in well; outcome: inactive
Or6e1 [SID315468317] | fewer than 50 cells in well: fewer than 50 cells per well; well left out of calls; outcome: inactive
Kpna1 [SID315467674] | Tnf reporter robust z-score: -0.56; fewer than 50 cells in well: enough cells in well; outcome: inactive
A330070K13Rik [SID315481800] | fewer than 50 cells in well: fewer than 50 cells per well; well left out of calls; outcome: inactive
Khsrp [SID315467608] | Tnf reporter robust z-score: 0.96; fewer than 50 cells in well: enough cells in well; outcome: inactive
Wwtr1 [SID315476092] | fewer than 50 cells in well: fewer than 50 cells per well; well left out of calls; outcome: inactive
Klf1 [SID315467641] | Tnf reporter robust z-score: 0.6; fewer than 50 cells in well: enough cells in well; outcome: inactive
Hivep1 [SID315476910] | Tnf reporter robust z-score: 1.41; fewer than 50 cells in well: enough cells in well; outcome: inactive
Ppp1r17 [SID315468665] | Tnf reporter robust z-score: -1.11; fewer than 50 cells in well: enough cells in well; outcome: inactive
Nphp1 [SID315471124] | Tnf reporter robust z-score: 0.09; fewer than 50 cells in well: enough cells in well; outcome: inactive
Csnk1g1 [SID315477891] | Tnf reporter robust z-score: -0.13; fewer than 50 cells in well: enough cells in well; outcome: inactive
Dnaaf9 [SID315478643] | fewer than 50 cells in well: fewer than 50 cells per well; well left out of calls; outcome: inactive
Selenok [SID315475724] | Tnf reporter robust z-score: 0.26; fewer than 50 cells in well: enough cells in well; outcome: inactive
Pik3r2 [SID315468513] | Tnf reporter robust z-score: 1.75; fewer than 50 cells in well: enough cells in well; outcome: inactive
